Source: PubChem BioAssay AID1224830 (NIAID, 2016)

Test: 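Genes whose knock-down alters the TNF-alpha reporter response to LPS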 (primary screen)
Cells: human THP-1 monocytic leukaemia cells, TNF dual-luciferase reporter clone, PMA-differentiated to macrophage-like cells
Reagent: siRNA pool against human genes, 50 nM
Time to read-out: LPS for 4 h, given about 3 days after siRNA transfection
Conditions: bacterial LPS (TLR4 ligand), 10 ng/ml
Measured: 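Ratio of firefly to renilla light, scaled to the plate median and expressed as a robust z-score per replicate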
Scale: TNF reporter robust z-score: higher = stronger TNF reporter response to LPS
Call rule: 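a well is active when its z-score exceeds 2.8 or falls below -1.5; control wells carry no call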
Here is an unselected part of about 18,000 reagents. In the full data, about 2,900 (16%) are marked active. 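Calls are made per well; low scores hint the gene aids the LPS response, high scores that it dampens it.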 Entries without a mark were called inactive. Repeated entries: four replicate wells of each siRNA pool.

| target gene | PubChem SID | TNF reporter robust z-score |
| --- | --- | --- |
| SLC2A9 | SID315458089 | -0.76 |
| SLC2A9 | SID315458089 | -1.11 |
| SLC2A9 | SID315458089 | -0.37 |
| SLC2A9 | SID315458089 | -0.31 |
| DDB2 | SID315448266 | 1.09 |
| DDB2 | SID315448266 | 1.16 |
| DDB2 | SID315448266 | 0.81 |
| DDB2 | SID315448266 | 1.92 |
| TWF1 | SID315450946 | -0.16 |
| TWF1 | SID315450946 | 0.7 |
| TWF1 | SID315450946 | 0.38 |
| TWF1 | SID315450946 | 0.78 |
| KCNT2 | SID315464158 | 0.41 |
| KCNT2 | SID315464158 | 0.64 |
| KCNT2 | SID315464158 | -1.09 |
| KCNT2 | SID315464158 | -1.42 |
| HTR1D | SID315449362 | 0.61 |
| HTR1D | SID315449362 | 0.93 |
| HTR1D | SID315449362 | 0.67 |
| HTR1D | SID315449362 | 1.33 |
| PLCD4 | SID315460509 | 0.38 |
| PLCD4 | SID315460509 | -0.78 |
| PLCD4 | SID315460509 | -0.01 |
| PLCD4 | SID315460509 | -0.29 |
| FANCG | SID315448633 | -0.94 |
| FANCG | SID315448633 | 1.99 |
| FANCG | SID315448633 | -1.97 (active) |
| FANCG | SID315448633 | -1.4 |
| NOP10 | SID315457654 | 0.7 |
| NOP10 | SID315457654 | 0.57 |
| NOP10 | SID315457654 | -0.05 |
| NOP10 | SID315457654 | 2.19 |
| FAM50B | SID315455730 | -0.51 |
| FAM50B | SID315455730 | -0.78 |
| FAM50B | SID315455730 | -0.23 |
| FAM50B | SID315455730 | -0.38 |
| TMCO1 | SID315457041 | 1.62 |
| TMCO1 | SID315457041 | 1.31 |
| TMCO1 | SID315457041 | 1.78 |
| TMCO1 | SID315457041 | 0.72 |
| FUT2 | SID315448774 | -1.69 (active) |
| FUT2 | SID315448774 | -1.16 |
| FUT2 | SID315448774 | -1.75 (active) |
| FUT2 | SID315448774 | -0.8 |
| DOK3 | SID315459570 | -0.74 |
| DOK3 | SID315459570 | -0.83 |
| DOK3 | SID315459570 | -0.91 |
| DOK3 | SID315459570 | -0.45 |

3 entries from above, sorted by “TNF reporter robust z-score”, lowest first:
| target gene | PubChem SID | TNF reporter robust z-score |
| --- | --- | --- |
| DDB2 | SID315448266 | 0.81 |
| DDB2 | SID315448266 | 1.16 |
| DDB2 | SID315448266 | 1.92 |
